Values from PubChem BioAssay AID1159584 (Peter MacCallum Cancer Centre, 2016).
Here is an unselected part of about 18,000 reagents. The record does not give: the amount of reagent, the time to read-out.

- Screen: 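Genes whose loss is lethal only together with E-cadherin loss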 (primary screen)
- System: human MCF10A breast epithelial cells, parental and CDH1-null
- Reagents: siRNA against human genes
- Detection: 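ATP luminescence (CellTiter-Glo) viability per line relative to mean mock wells over all plates, and the ratio of CDH1-null to parental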
- Direction: CDH1-null / parental viability ratio: higher = CDH1-null cells survive relatively better than parental; CDH1-null viability vs mock: higher = more viable CDH1-null cells; parental viability vs mock: higher = more viable parental cells

| gene | CDH1-null / parental viability ratio | CDH1-null viability vs mock (fraction of mock) | parental viability vs mock (fraction of mock) |
| --- | --- | --- | --- |
| VSTM4 | 1.06 | 0.9 | 0.85 |
| POLR3GL | 0.99 | 0.88 | 0.89 |
| CER1 | 1.18 | 1.04 | 0.88 |
| ARMCX2 | 0.99 | 0.83 | 0.84 |
| ZNF395 | 1.08 | 0.96 | 0.89 |
| WIPF3 | 1.01 | 0.79 | 0.78 |
| UBAC1 | 0.87 | 0.7 | 0.8 |
| DNAJC25-GNG10 | 0.68 | 0.49 | 0.72 |
| EFHD2 | 1.45 | 0.42 | 0.29 |
| ARSL | 0.98 | 0.92 | 0.94 |
| PITX2 | 1.11 | 0.82 | 0.74 |
| SPOCK3 | 1.51 | 0.8 | 0.53 |
| SEC23B | 0.76 | 0.52 | 0.68 |
| RBM12 | 0.86 | 0.55 | 0.64 |
| PCNX2 | 0.84 | 0.74 | 0.88 |
| SCN2A | 1.03 | 0.72 | 0.7 |
| STAT4 | 0.91 | 1.07 | 1.18 |
| KCTD11 | 1.28 | 0.37 | 0.29 |
| PHOSPHO2 | 0.73 | 0.6 | 0.82 |
| KCNK4 | 1.26 | 0.73 | 0.58 |
| SHFL | 1.17 | 0.77 | 0.66 |
| OR2F1 | 1.13 | 0.34 | 0.3 |
| DRD2 | 1.04 | 0.72 | 0.69 |
| KRTAP4-7 | 1.15 | 0.83 | 0.72 |
| CNEP1R1 | 1.02 | 0.85 | 0.83 |
| ASB1 | 0.92 | 0.55 | 0.6 |
| TEX14 | 0.88 | 0.5 | 0.57 |
| EXOC4 | 1.14 | 0.8 | 0.7 |

No new results follow: an excerpt of the list.
| gene | CDH1-null / parental viability ratio | CDH1-null viability vs mock (fraction of mock) | parental viability vs mock (fraction of mock) |
| --- | --- | --- | --- |
| ARMCX2 | 0.99 | 0.83 | 0.84 |
| ZNF395 | 1.08 | 0.96 | 0.89 |
